# Structures can show the parent of a compound that is named as a salt.
# System: back skin of rat
# Assay: Local anesthetic effect by subcutaneous infiltration in rat back skin (Von Frey 100 g)
# Format: in vivo
# Details: 0.5 mL in saline, compound 6 mmol/L, bupivacaine 23 mmol/L, 10 rats per compound
# Description: After the back of rat weighing 250-300 g was shaved and disinfected, a circle with a diameter of about 1.5 cm was drawn on the side of the exposed back, and the circle is divided into 6 equal parts. […] Among the Von Frey fiber yarns, the one with a strength of 100 g was bound to the needle for local skin stimulation. One minute After the drug was injected, the above method was used to stimulate in 6 divisions. […] If back skin contraction was observed, the local anesthetic effect was considered as loss. […] Each compound was tested with 10 rats.
structure (smiles),measurement,value
"CCN(CC)CC(=O)Nc1c(C)cccc1C [Lidocaine hydrochloride, reference compound]",Lasting time of local anesthesia (Median),4 h
